Laboratory results as given in US5173486A, “Dibenz[b,f][1,4]oxazepin-11(10H)-ones for multidrug resistance reversing agents” (Bristol-Myers Squibb Company, priority 1991, dated 1992).

Tested on: MCF-7 cells
Assay: Cytotoxic assay, Adriamycin in sensitive human breast carcinoma MCF-7 cells
Type: cell-based
Settings: MCF7, MCF-7 (sensitive), no chemosensitizer, 48 hours, read-out: ADR IC50
Method: Cell Culture: HCT116/VM46 cells were selected from human colon carcinoma HCT116 cell line for resistance to VM26 and MCF-7/ADR cells were selected from human breast carcinoma MCF-7 cell line for resistance to Adriamycin. […] The cell lines were grown in tissue culture flasks containing McCoy's A medium and 10% fetal bovine serum. Cells were maintained at 37° C. in a humidified atmosphere containing 5% CO2 and subcultured every 5 days.
Cytotoxic Assay: The cells were seeded in 96 well microtiter plates at 5×10^3 cells per well and allowed to grow for 24 hours at 37° C. Cells were then incubated with decreasing amounts of antitumor agents: Adriamycin (100 μM, maximal concentration) or actinomycin D (17.6 ng/ml), for MCF-7 and HCT-116 cells, respectively. Chemosensitizers were added at variable concentrations ranging from 0.08 μM to 40 μM. In parallel, verapamil was used as positive control at the same concentrations. After 48 hours of incubation, the cells were washed, fixed and stained with crystal violet. Absorbance was read by Molecular Devices' microtiter plate reader at the wavelength of 595nm. The IC50 value (50% inhibition of cell growth) was determined from relative survival rates resulted from two to three independent experiments. […]

COc1cccc2c1C(=O)c1c(O)c3c(c(O)c1C2=O)C[C@@](O)(C(=O)CO)C[C@@H]3O[C@H]1C[C@H](N)[C@H](O)[C@H](C)O1 [ADR]
IC50: 360 nM
